# According to the supplement of paper PMC10849652:
# Amino acid sequences for entries named in this document (tags omitted). A change or cut given only in a name is not applied to a line headed by its entry.
# UniProt Q9Y446: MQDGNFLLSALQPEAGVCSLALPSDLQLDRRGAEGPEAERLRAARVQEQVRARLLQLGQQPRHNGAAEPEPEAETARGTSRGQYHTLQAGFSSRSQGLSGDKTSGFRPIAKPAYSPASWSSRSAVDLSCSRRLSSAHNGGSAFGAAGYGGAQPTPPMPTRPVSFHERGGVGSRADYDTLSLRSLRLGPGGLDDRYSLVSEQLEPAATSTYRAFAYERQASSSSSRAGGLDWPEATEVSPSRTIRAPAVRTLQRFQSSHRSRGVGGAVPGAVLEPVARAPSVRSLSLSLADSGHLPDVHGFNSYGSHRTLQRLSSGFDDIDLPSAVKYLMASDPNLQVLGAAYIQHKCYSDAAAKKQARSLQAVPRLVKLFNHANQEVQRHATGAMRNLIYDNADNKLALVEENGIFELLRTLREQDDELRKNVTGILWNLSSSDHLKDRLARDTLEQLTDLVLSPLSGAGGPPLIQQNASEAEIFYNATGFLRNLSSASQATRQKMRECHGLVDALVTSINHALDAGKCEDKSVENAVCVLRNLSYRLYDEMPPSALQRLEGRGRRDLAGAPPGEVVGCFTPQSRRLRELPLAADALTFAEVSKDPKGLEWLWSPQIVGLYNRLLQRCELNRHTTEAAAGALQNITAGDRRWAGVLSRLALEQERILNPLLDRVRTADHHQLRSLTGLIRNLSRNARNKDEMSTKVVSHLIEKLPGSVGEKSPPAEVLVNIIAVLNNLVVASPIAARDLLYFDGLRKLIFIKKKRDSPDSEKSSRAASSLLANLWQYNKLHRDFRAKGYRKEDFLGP
# UniProt P48739: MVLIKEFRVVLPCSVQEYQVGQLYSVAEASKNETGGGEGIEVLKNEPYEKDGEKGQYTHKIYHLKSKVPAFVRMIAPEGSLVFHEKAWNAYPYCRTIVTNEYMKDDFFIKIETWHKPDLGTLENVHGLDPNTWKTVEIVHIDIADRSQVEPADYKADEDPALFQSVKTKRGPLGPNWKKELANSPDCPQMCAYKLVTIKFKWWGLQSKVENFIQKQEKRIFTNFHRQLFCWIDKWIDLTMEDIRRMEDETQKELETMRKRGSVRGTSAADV
# UniProt Q9NRX4: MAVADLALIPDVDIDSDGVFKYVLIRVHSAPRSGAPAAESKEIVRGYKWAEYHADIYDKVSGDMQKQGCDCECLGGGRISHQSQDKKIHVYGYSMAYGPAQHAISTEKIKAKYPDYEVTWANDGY
# UniProt Q16816: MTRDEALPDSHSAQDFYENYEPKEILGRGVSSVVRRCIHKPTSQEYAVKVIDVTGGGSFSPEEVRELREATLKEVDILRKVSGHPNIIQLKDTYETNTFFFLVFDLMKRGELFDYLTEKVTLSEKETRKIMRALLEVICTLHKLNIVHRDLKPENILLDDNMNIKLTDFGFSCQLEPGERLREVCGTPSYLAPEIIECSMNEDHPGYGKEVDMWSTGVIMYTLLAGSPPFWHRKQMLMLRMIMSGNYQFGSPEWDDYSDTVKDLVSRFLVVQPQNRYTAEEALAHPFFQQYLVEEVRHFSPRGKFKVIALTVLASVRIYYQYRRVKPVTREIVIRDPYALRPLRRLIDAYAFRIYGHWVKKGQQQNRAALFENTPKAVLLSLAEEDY
# UniProt Q00169: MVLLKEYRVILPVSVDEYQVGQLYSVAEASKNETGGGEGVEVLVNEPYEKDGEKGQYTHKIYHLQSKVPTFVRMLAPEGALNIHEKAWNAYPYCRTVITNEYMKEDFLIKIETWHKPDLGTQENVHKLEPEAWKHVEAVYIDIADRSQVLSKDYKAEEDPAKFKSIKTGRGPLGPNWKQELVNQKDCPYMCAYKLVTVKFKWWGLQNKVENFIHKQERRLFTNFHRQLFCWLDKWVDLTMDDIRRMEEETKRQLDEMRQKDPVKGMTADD
# UniProt Q15149: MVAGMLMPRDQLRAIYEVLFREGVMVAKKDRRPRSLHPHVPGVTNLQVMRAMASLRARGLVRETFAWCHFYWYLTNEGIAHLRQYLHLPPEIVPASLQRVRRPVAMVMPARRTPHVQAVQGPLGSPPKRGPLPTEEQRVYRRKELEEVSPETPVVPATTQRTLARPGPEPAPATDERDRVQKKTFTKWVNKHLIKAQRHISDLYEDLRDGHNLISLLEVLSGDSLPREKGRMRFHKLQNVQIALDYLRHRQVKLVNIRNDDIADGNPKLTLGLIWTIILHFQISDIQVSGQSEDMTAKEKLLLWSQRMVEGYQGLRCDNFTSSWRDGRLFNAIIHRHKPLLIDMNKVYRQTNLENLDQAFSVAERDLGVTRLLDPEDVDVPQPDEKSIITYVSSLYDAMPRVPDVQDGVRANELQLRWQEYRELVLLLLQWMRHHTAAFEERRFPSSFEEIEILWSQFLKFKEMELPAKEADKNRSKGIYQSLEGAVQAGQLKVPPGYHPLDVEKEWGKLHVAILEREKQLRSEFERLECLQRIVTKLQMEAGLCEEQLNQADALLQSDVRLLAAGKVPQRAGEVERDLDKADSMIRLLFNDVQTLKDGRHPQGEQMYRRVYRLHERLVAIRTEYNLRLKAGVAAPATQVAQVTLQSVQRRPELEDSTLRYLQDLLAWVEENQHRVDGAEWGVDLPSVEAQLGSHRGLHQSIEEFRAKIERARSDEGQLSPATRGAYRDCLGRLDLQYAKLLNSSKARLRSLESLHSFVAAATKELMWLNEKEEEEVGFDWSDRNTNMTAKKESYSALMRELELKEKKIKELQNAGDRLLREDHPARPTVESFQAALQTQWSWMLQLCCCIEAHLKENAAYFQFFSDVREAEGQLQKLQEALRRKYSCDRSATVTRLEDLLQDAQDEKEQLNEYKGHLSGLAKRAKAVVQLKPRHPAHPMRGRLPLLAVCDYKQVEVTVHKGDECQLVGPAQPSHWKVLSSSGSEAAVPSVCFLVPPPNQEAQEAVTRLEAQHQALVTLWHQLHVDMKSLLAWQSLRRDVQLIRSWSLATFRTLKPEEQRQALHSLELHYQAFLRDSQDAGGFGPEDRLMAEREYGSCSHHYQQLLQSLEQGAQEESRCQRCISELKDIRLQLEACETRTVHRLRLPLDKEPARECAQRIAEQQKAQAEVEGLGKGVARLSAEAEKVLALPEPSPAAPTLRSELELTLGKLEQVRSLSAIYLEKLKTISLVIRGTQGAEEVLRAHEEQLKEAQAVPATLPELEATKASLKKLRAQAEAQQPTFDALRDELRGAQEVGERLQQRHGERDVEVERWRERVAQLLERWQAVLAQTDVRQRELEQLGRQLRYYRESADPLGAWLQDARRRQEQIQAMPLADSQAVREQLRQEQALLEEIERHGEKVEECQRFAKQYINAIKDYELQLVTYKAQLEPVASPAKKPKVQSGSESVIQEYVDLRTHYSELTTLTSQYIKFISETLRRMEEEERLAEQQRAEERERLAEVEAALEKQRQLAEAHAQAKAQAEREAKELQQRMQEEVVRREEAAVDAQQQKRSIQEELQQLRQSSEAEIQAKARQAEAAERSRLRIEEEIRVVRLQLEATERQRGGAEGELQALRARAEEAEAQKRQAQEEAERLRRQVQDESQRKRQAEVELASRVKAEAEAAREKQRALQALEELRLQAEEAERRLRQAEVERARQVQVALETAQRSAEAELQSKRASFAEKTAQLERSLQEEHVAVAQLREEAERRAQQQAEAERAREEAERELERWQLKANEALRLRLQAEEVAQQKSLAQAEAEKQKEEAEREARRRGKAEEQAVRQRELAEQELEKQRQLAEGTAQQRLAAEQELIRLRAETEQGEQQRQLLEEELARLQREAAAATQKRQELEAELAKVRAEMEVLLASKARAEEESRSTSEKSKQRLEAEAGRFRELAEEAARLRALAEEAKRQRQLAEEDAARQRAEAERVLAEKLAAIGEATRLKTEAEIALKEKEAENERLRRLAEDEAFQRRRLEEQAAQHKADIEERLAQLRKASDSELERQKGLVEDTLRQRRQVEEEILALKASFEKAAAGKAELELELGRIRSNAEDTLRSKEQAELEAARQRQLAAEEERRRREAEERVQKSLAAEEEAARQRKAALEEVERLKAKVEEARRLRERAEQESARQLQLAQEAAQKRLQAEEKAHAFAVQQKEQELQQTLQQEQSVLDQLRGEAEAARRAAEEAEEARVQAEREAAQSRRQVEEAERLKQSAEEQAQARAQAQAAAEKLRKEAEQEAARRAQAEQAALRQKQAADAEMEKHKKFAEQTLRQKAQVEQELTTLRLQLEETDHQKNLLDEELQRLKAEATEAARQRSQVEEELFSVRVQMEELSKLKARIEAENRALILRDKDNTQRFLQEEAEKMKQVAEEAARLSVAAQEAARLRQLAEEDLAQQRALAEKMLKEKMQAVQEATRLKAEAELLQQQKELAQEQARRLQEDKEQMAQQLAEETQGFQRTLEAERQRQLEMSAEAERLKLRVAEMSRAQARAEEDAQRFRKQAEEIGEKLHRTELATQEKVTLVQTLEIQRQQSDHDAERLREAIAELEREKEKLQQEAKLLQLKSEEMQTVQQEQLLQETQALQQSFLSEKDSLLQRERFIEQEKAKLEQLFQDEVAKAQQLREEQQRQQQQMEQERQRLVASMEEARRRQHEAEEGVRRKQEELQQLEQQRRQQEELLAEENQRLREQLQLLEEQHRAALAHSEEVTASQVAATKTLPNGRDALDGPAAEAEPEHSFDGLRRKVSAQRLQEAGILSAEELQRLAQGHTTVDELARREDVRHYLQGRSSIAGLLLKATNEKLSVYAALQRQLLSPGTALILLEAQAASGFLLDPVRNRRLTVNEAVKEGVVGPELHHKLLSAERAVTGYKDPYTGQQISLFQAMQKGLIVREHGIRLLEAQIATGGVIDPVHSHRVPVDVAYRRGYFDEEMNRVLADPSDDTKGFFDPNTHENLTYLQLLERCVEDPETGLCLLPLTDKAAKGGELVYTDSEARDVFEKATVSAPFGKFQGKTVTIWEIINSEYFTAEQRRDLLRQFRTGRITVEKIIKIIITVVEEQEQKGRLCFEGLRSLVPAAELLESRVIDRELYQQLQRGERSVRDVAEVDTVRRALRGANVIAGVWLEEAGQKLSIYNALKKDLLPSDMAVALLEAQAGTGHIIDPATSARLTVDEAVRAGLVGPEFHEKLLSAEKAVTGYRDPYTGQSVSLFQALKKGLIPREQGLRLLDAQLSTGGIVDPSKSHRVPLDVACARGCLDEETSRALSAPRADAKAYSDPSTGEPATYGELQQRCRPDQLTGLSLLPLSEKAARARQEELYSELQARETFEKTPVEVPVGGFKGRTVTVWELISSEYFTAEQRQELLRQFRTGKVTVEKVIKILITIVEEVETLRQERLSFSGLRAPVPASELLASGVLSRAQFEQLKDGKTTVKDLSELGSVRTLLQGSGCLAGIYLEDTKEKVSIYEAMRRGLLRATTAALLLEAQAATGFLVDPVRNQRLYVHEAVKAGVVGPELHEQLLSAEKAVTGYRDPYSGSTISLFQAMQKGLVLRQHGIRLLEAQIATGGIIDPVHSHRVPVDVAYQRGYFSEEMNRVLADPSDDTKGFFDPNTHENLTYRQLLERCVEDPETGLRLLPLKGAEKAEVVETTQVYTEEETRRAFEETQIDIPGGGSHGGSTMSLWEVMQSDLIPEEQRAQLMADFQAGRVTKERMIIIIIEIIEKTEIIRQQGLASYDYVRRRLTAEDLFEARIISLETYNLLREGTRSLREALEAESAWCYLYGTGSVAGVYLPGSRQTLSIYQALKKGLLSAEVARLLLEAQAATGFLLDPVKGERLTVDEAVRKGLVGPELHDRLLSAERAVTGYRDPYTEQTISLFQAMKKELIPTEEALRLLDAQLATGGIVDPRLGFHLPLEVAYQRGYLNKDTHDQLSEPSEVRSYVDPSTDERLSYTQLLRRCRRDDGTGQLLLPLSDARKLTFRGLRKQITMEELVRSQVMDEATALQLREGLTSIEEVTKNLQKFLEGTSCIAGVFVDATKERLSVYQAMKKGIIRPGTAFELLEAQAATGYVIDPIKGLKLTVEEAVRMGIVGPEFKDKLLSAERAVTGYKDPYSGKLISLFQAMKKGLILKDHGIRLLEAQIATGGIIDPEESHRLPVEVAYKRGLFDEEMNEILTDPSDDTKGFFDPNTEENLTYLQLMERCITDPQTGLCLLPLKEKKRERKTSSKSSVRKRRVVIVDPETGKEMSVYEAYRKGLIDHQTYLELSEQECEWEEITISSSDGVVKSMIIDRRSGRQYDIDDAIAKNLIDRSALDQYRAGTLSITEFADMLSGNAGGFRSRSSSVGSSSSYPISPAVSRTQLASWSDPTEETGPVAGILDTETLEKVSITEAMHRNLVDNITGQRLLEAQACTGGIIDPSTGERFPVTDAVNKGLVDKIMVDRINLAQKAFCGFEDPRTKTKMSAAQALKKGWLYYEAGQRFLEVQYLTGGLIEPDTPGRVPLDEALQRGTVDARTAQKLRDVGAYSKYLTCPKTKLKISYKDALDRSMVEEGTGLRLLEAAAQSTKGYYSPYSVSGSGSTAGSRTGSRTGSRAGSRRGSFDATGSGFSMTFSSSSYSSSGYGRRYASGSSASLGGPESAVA
# The other results are listed elsewhere or left out.
# Key:
# Experiment in all cases: log2 fold change, soluble protein after heating vs DMSO (PISA); higher = thermal stabilisation; K562 lysate, 10 uM; active = over 0.2 and 3.5 SD of the protein, either way, in both replicates (recomputed)
# alvocidib = compound: CN1CC[C@H](c2c(O)cc(O)c3c(=O)cc(-c4ccccc4Cl)oc23)[C@H](O)C1 [alvocidib]
# How it was run: (§1)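 K562 pellets were dounce-homogenised in PBS pH 7.4 containing 1 mM MgCl2, and the crude extract, at 1 mg/mL protein, was exposed to 10 μM compound for 30 min. Aliquots were heated for 3 min across 48°C-58°C, pooled, brought to 0.5% NP-40 at 4°C and spun at 21,000xg for 90 min, with the supernatant taken as soluble protein. TMTpro 16plex LC-MS/MS with equalised channel sums quantified that protein. Values are log-two fold changes in thermal stability relative to solvent controls, taken from duplicates.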
# Tubastatin A = compound: CN1CCc2c(c3ccccc3n2Cc2ccc(C(=O)NO)cc2)C1 [Tubastatin A]
# How it was run: as §1
# [1] = compound: CNC(=O)C1=CC=CC=C1NC2=NC(=NC=C2Cl)NC3=C(C=C(C=C3)N4CCOCC4)OC
# How it was run: as §1
# defactinib = compound: CNC(=O)c1ccc(Nc2ncc(C(F)(F)F)c(NCc3nccnc3N(C)S(C)(=O)=O)n2)cc1 [defactinib]
# How it was run: as §1
# [2] = compound: CNc1nc(-c2ccc3c(N)n[nH]c3c2)cc(N2C[C@@H](C(=O)NC3CCCCC3)CC[C@H]2C)n1
# How it was run: as §1
# encorafenib = compound: COC(=O)N[C@@H](C)CNc1nccc(-c2cn(C(C)C)nc2-c2cc(Cl)cc(NS(C)(=O)=O)c2F)n1 [encorafenib]
# How it was run: as §1
# [3] = compound: COC(=O)[C@H](CCSC)NC(=O)C1=C(C=C(C=C1)NC[C@H](CS)N)C2=CC=CC=C2
# How it was run: as §1
# alisertib = compound: COc1cc(Nc2ncc3c(n2)-c2ccc(Cl)cc2C(c2c(F)cccc2OC)=NC3)ccc1C(=O)O [alisertib]
# How it was run: as §1
# [4] = compound: COc1cc2nc(-c3cc(F)ccc3O)nc(N[C@@H]3CNC[C@H]3C(C)(C)O)c2cc1OC
# How it was run: as §1
# gefitinib = compound: COc1cc2ncnc(Nc3ccc(F)c(Cl)c3)c2cc1OCCCN1CCOCC1 [gefitinib]
# How it was run: as §1
Target,log2 fold change (alvocidib),log2 fold change (Tubastatin A),log2 fold change [1],log2 fold change (defactinib),log2 fold change [2],log2 fold change (encorafenib),log2 fold change [3],log2 fold change (alisertib),log2 fold change [4],log2 fold change (gefitinib)
PISD (UniProt Q9UG56),inactive: 0.038,inactive: -0.025,inactive: -0.031,inactive: -0.099,inactive: -0.235,inactive: 0.044,inactive: -0.055,inactive: -0.101,inactive: -0.024,inactive: -0.039
PIGS (UniProt Q96S52),inactive: 0.005,inactive: -0.004,inactive: -0.03,inactive: -0.028,inactive: -0.001,inactive: 0.019,inactive: 0.03,inactive: -0.014,inactive: -0.026,inactive: -0.044
PKP3 isoform 2 (UniProt Q9Y446),inactive: -0.011,inactive: -0.126,inactive: 0.067,inactive: 0.035,inactive: 0.017,inactive: 0.098,inactive: 0.095,inactive: 0.019,inactive: 0.031,inactive: -0.018
PKLR (UniProt P30613),inactive: -0.01,inactive: 0.019,inactive: -0.005,inactive: -0.024,inactive: 0.085,inactive: 0.007,inactive: -0.101,inactive: -0.003,inactive: 0.01,inactive: 0.047
PIK3R4 (UniProt Q99570),inactive: -0.038,inactive: -0.052,inactive: 0.005,inactive: 0.002,inactive: -0.004,inactive: 0.051,inactive: -0.012,inactive: -0.013,inactive: 0.02,inactive: 0.011
PIGO (UniProt Q8TEQ8),inactive: 0.038,inactive: -0.112,inactive: -0.095,inactive: 0.046,inactive: 0.143,inactive: 0.019,inactive: -0.121,inactive: 0.061,inactive: -0.073,inactive: 0.013
PITPNB isoform 3 (UniProt P48739),inactive: 0.001,inactive: 0.009,inactive: -0.014,inactive: 0.004,inactive: -0.055,inactive: -0.023,inactive: -0.008,inactive: 0.009,inactive: -0.013,inactive: -0.044
PIGT (UniProt Q969N2),inactive: 0.003,inactive: 0.013,inactive: -0.073,inactive: -0.036,inactive: -0.002,inactive: -0.005,inactive: -0.049,inactive: 0.047,inactive: -0.094,inactive: 0.053
PIM1 isoform 2 (UniProt P11309),inactive: 0.217,inactive: -0.204,inactive: 0.052,inactive: 0.035,inactive: -0.152,inactive: -0.007,inactive: 0.038,inactive: -0.017,–,inactive: 0.003
PHPT1 (UniProt Q9NRX4),inactive: 0.06,inactive: 0.011,inactive: -0.004,inactive: -0.038,inactive: -0.034,inactive: -0.008,inactive: -0.083,inactive: -0.011,inactive: -0.007,inactive: -0.024
PICK1 (UniProt Q9NRD5),inactive: -0.054,inactive: -0.023,inactive: 0.029,inactive: 0.08,inactive: -0.033,inactive: 0.027,inactive: -0.001,inactive: 0.023,inactive: 0.011,inactive: -0.104
PHKA2 (UniProt P46019),inactive: 0.064,inactive: -0.084,active: 0.265,inactive: -0.027,inactive: 0.032,inactive: -0.008,inactive: 0.018,inactive: -0.008,inactive: 0.06,inactive: -0.03
PLCG1 isoform 2 (UniProt P19174),inactive: -0.035,inactive: -0.071,inactive: 0.004,inactive: 0.01,inactive: -0.024,inactive: -0.005,inactive: -0.012,inactive: 0.022,inactive: -0.013,inactive: -0.012
PIAS4 (UniProt Q8N2W9),inactive: -0.12,inactive: -0.153,inactive: 0.052,inactive: -0.158,inactive: 0.063,inactive: 0.013,inactive: -0.036,inactive: -0.052,–,inactive: -0.015
PI4K2B (UniProt Q8TCG2),inactive: -0.263,inactive: 0.12,inactive: -0.04,inactive: -0.081,inactive: -0.057,inactive: 0.041,inactive: -0.005,inactive: -0.068,inactive: -0.011,inactive: 0.107
PHKG1 isoform 2 (UniProt Q16816),inactive: -0.057,inactive: 0.053,active: 0.929,inactive: 0.196,inactive: -0.118,inactive: 0.123,inactive: -0.078,inactive: -0.185,inactive: 0.763,inactive: 0.202
PKNOX1 (UniProt P55347),inactive: -0.012,inactive: 0.043,inactive: 0.02,inactive: 0.01,inactive: -0.016,inactive: 0.081,inactive: 0.06,inactive: -0.005,inactive: -0.029,inactive: 0.215
PHACTR4 isoform 2 (UniProt Q8IZ21),inactive: 0.209,inactive: 0.016,inactive: -0.024,inactive: 0.012,inactive: 0.1,inactive: -0.01,inactive: -0.016,inactive: -0.019,inactive: 0.004,inactive: -0.022
PITPNA (UniProt Q00169),inactive: 0.034,inactive: 0.015,inactive: -0.016,inactive: -0.003,inactive: -0.016,inactive: -0.004,inactive: -0.04,inactive: 0.004,inactive: 0.019,inactive: 0.005
PINX1 (UniProt Q96BK5),inactive: -0.092,inactive: -0.058,inactive: -0.03,inactive: 0.022,inactive: -0.031,inactive: 0.044,inactive: 0.039,inactive: -0.04,inactive: -0.076,inactive: 0.144
PHKA1 (UniProt P46020),inactive: 0.047,inactive: -0.073,inactive: 0.168,inactive: 0.08,inactive: -0.029,inactive: 0.004,inactive: 0.065,inactive: -0.014,inactive: 0.084,inactive: 0.041
PLCH1 (UniProt Q4KWH8),inactive: -0.081,inactive: 0.045,inactive: -0.05,inactive: 0.023,inactive: -0.169,inactive: 0.017,inactive: -0.072,–,inactive: -0.006,–
PLEC (UniProt Q15149),inactive: -0.007,inactive: -0.065,inactive: 0.003,inactive: -0.026,inactive: -0.084,inactive: -0.003,inactive: -0.002,inactive: 0.003,inactive: -0.007,inactive: 0
PLEKHA5 isoform 6 (UniProt Q9HAU0),inactive: -0.11,inactive: -0.074,inactive: 0.02,inactive: 0.065,inactive: 0.006,inactive: -0.016,inactive: 0.054,inactive: 0.035,inactive: -0.03,inactive: -0.039
PHOSPHO2 (UniProt Q8TCD6),inactive: 0.053,inactive: -0.042,inactive: -0.026,inactive: -0.008,inactive: -0.008,inactive: -0.02,active: 0.356,inactive: -0.013,inactive: -0.008,inactive: 0.016

# Some of the entries above, set out differently.
Target | log2 fold change (alvocidib) | log2 fold change (Tubastatin A) | log2 fold change [1] | log2 fold change (defactinib) | log2 fold change [2] | log2 fold change (encorafenib) | log2 fold change [3] | log2 fold change (alisertib) | log2 fold change [4] | log2 fold change (gefitinib)
PKLR (UniProt P30613) | inactive: -0.01 | inactive: 0.019 | inactive: -0.005 | inactive: -0.024 | inactive: 0.085 | inactive: 0.007 | inactive: -0.101 | inactive: -0.003 | inactive: 0.01 | inactive: 0.047
PIK3R4 (UniProt Q99570) | inactive: -0.038 | inactive: -0.052 | inactive: 0.005 | inactive: 0.002 | inactive: -0.004 | inactive: 0.051 | inactive: -0.012 | inactive: -0.013 | inactive: 0.02 | inactive: 0.011
PIGO (UniProt Q8TEQ8) | inactive: 0.038 | inactive: -0.112 | inactive: -0.095 | inactive: 0.046 | inactive: 0.143 | inactive: 0.019 | inactive: -0.121 | inactive: 0.061 | inactive: -0.073 | inactive: 0.013
PITPNB isoform 3 (UniProt P48739) | inactive: 0.001 | inactive: 0.009 | inactive: -0.014 | inactive: 0.004 | inactive: -0.055 | inactive: -0.023 | inactive: -0.008 | inactive: 0.009 | inactive: -0.013 | inactive: -0.044
PIGT (UniProt Q969N2) | inactive: 0.003 | inactive: 0.013 | inactive: -0.073 | inactive: -0.036 | inactive: -0.002 | inactive: -0.005 | inactive: -0.049 | inactive: 0.047 | inactive: -0.094 | inactive: 0.053
PIM1 isoform 2 (UniProt P11309) | inactive: 0.217 | inactive: -0.204 | inactive: 0.052 | inactive: 0.035 | inactive: -0.152 | inactive: -0.007 | inactive: 0.038 | inactive: -0.017 | – | inactive: 0.003
